Test results from US12622919B2, “Methods for treating hypervirulent Klebsiella pneumoniae infection” (priority 2023, dated 2026).
Some entries share one result that the patent states for a list of compounds.

Tested on: hvKp strain 17ZR101
Test: Mouse sepsis model, ~10^4 CFU 17ZR101, drug at 3 hpi: survival, body weight, spleen weight
Assay type: in vivo, C57BL6 mice
Details: 17ZR101 infection; i.p. at 3 hpi: 50 mg kg^−1 NPXS, 10 DXMS, 200 AzA, 20 CsA
Protocol: All animal experiments were approved by the Animal Ethics Committee of the City University of Hong Kong and followed the guidelines of the Institutional Laboratory Animal Research Unit. Six- to eight-weeks-old animals of both sexes were used in this study. For the sepsis model, mice were intravenously injected with ˜10^4 colony forming units (CFU) of the test stain resuspended in 200 μL PBS. For the pneumonia model, mice were anesthetized by inhaling isoflurane, and ˜10^6 CFU of the strain resuspended 10 μL PBS were dripped into the mouse's nasal cavity. The heads of the mice were hold upright for 30 s afterwards.
In ASA, NPXS, CTX, AzA, CsA, DXMS, and F-ara treatment experiment, mice challenged by 17ZR101 were given intraperitoneally 100 mg kg^−1 ASA, 50 mg kg^−1 NPXS, 150 mg kg^−1 CTX, 200 mg kg^−1 AzA, 20 mg kg^−1 CsA, 10 mg kg^−1 DXMS and 40 mg kg^−1 F-ara at 3 hpi, another group treated with an equal volume of PBS or 200 μL of corn oil solution was included as a control group. In ASA and CAZ/AVI combination treatment experiment, mice were given intraperitoneally 100 mg kg^−1 ASA plus 8 mg kg^−1 CAZ and 4 mg kg^−1 AVI or 8 mg kg^−1 CAZ and 4 mg kg^−1 AVI at 1 hpi. The health status and weight of all mice were observed and recorded.

**Q.** `C[C@@H]1C[C@H]2[C@@H]3CCC4=CC(=O)C=C[C@]4(C)[C@@]3(F)[C@@H](O)C[C@]2(C)[C@@]1(O)C(=O)CO` [dexamethasone] was tested. Which “mice protected from death” value did it give?
**A.** up to 60%
